Values quoted from earlier work in patent US9555001B2, “Pharmaceutical composition and uses thereof” (Boehringer Ingelheim International GmbH, priority 2012, dated 2017).

Conditions: metformin on its own, in the diabetic

## CN(C)C(=N)N=C(N)N [metformin]
  average improvement in the HbA1c value: 1.0-1.5%
